PubChem BioAssay AID602196 – INSERM – 2012

- Aim: 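Knock-downs that protect lung cancer cells from cisplatin or sensitise them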
- Cell system: human A549 lung cancer cells
- Knock-down reagent: siRNA pair against human genes
- Time to read-out: 48 h transfection before cisplatin; time from cisplatin to read-out not stated
- Treatment: cisplatin at a dose killing half of control-siRNA cells; exact dose and duration not given
- Measurement: 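Cisplatin cell death as a shift from the 50% death seen with control siRNA; siRNAs toxic or growth-blocking alone scored 0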
- Scale: two-siRNA summed score (-2 to +2): higher = both siRNAs protect from cisplatin killing; -2 means both sensitise; mean protection from cisplatin (shift in death) and protection from cisplatin (shift in death), siRNA C and protection from cisplatin (shift in death), siRNA D: higher = protection from cisplatin killing
- Active means: 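siRNAs harmful alone (LDH or WST-1) get 0; others get +1 for less and -1 for more cisplatin killing; genes are active when the two siRNAs give the same sign, summing to ±2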
- Meaning of the calls: active = both siRNAs shift cisplatin killing the same way; inactive = no consistent shift, or siRNA harmful alone
The whole screen tested about 23,000 reagents; this is a part drawn at random. Of all reagents, 455 (2%) were called active. 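Active includes both protection and sensitisation; some change values fall well beyond the stated -50 to +50 range.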 Entries without a mark were called inactive. The numbers tell different reagents against one gene apart. No sequences are given here. The record does not give: the amount of reagent.

| Target gene | reagent | two-siRNA summed score (-2 to +2) | mean protection from cisplatin (shift in death) (%) | protection from cisplatin (shift in death), siRNA C (%) | protection from cisplatin (shift in death), siRNA D (%) |
| --- | --- | --- | --- | --- | --- |
| LOC440310 | 1 | 1 | 13.4 | 13.6 | 13.1 |
| SNCAIP | 1 | 1 | 10.8 | 3.9 | 17.8 |
| DSTYK | 1 | 0 | -3.6 | 1 | -8.3 |
| CDR2 | 1 | 1 | 4.5 | -1.8 | 10.7 |
| PPM1L | 1 | 1 | 11.1 | -2.1 | 24.3 |
| MOCS3 | 1 | 0 | -4.3 | 2.3 | -11 |
| HTR1E | 1 | 0 | -8.3 | -2 | -14.5 |
| NDFIP1 | 1 | 0 | -2.1 | -1.9 | -2.4 |
| NTRK3 | 1 | 0 | 14.5 | 17.4 | 11.5 |
| LOC440840 | 1 | 1 | 22.3 | 27.2 | 17.4 |
| GNB3 | 1 | 0 | 3 | -2.3 | 8.4 |
| SSX8P | 1 | 0 | 10 | -3.9 | 23.9 |
| LOC402388 | 1 | 0 | 3.4 | 6.9 | -0.1 |
| COIL | 1 | 0 | -11.2 | -16.3 | -6 |
| DPYSL2 | 1 | 0 | -10.8 | -15.8 | -5.8 |
| MNS1 | 1 | -1 | -9.2 | -1.1 | -17.3 |
| CAPRIN1 | 1 | 0 | -2 | -1.4 | -2.6 |
| DMTF1 | 1 | -1 | -7.8 | -4.3 | -11.3 |
| LOC121952 | 1 | 0 | 5.1 | 11.9 | -1.6 |
| DNAH12 | 1 | 0 | 9.9 | 4.6 | 15.1 |
| DNAH12 | 2 | 0 | 23 | 29.5 | 16.5 |
| LOC389224 | 1 | 0 | 11.8 | 0.9 | 22.6 |
| CHST8 | 1 | -1 | -4 | -13.4 | 5.3 |

Not a retest: an excerpt of the list.
| Target gene | reagent | two-siRNA summed score (-2 to +2) | mean protection from cisplatin (shift in death) (%) | protection from cisplatin (shift in death), siRNA C (%) | protection from cisplatin (shift in death), siRNA D (%) |
| --- | --- | --- | --- | --- | --- |
| LOC121952 | 1 | 0 | 5.1 | 11.9 | -1.6 |
| DNAH12 | 1 | 0 | 9.9 | 4.6 | 15.1 |
